## Screening data, single-dose tests

By UniProt entry, the sequences of proteins in these tests, tags left out. Residues count along the entry.
UniProt A4I591, 1-473: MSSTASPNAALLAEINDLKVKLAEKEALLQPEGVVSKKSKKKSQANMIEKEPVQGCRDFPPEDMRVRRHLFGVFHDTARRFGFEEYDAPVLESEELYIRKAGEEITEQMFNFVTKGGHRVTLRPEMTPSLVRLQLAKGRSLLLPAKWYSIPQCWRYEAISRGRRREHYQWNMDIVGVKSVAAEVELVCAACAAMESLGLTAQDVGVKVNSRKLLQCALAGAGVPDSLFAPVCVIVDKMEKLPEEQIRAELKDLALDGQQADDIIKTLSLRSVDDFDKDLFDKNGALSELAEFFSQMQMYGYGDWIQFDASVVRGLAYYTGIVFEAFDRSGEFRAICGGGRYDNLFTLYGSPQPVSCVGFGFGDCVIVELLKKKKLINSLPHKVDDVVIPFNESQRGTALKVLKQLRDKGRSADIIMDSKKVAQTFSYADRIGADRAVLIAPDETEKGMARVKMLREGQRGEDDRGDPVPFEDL
UniProt P9WNZ1, whole entry: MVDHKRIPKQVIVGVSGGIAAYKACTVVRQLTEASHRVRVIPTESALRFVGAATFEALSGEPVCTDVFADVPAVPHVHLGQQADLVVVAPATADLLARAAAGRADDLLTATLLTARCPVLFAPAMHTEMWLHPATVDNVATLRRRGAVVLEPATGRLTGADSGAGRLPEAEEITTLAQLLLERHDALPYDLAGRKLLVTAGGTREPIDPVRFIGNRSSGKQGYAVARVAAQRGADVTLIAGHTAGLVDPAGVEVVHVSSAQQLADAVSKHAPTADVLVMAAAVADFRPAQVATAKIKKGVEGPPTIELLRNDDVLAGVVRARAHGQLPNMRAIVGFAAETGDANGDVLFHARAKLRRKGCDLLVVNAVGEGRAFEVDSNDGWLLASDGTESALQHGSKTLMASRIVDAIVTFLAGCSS

Data taken from ChEMBL document CHEMBL3988442, “University of Dundee, Small-Polar-MMV Screening Library” (2021).

LiHisRS: 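Enzyme assay of histidyl-tRNA synthetase; the read-out is not stated. Target: Histidine-tRNA ligase, Leishmania infantum (UniProt A4I591). Compounds at 30 µM. Direction is inferred from retests: higher values go with stronger inhibition. The assay is labelled LdHisRS but filed under L. infantum. About 69,000 compounds were tested under these conditions; 0.6% (about 410) showed 50% or more at least once.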
Leishmania in macrophages: 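Cell assay of Leishmania donovani living inside macrophages; the read-out is not stated. Compounds at 30 µM. Direction is inferred from retests: higher values go with stronger inhibition. Size under these conditions: about 69,000 compounds, about 1,000 of them at 50% or above in at least one test.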
CoaBC: 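Enzyme assay of CoaBC with a phosphate dye (Biomol Green) read at 650 nm. Target: Coenzyme A biosynthesis protein CoaBC, Mycobacterium tuberculosis (UniProt P9WNZ1). Concentration: 30 µM. Direction is inferred from only a few compounds that gave an IC50; most scored high, so higher reads as stronger inhibition. Most strong results did not repeat in a second test. About 67,000 compounds were tested under these conditions; 0.06% (about 40) showed 50% or more at least once.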

Each number is a percent effect as filed. The controls that fix the scale are not given in the record; negative values are as filed. Compounds were drawn at random from those tested, without regard to their results. Two or more numbers in one place are separate tests of the same structure; such repeats can differ widely.

{"compound": "CCN(CC(=O)N(C)C)C(=O)c1cc(-c2cccc(Cl)c2)no1", "LiHisRS": 14.29, "Leishmania in macrophages": -27.91, "CoaBC": 8.104}
{"compound": "O=C(O)C(F)(F)F.[H][C@@]12CN(Cc3cnn(C)c3)CCC[C@]1(C(=O)O)CN(c1ncccn1)C2", "Leishmania in macrophages": 8.434}
{"compound": "Cn1nnc2c1CCN(Cc1nccs1)C2COCc1ccccc1.O=C(O)C(F)(F)F", "stereo": "stereo not given", "Leishmania in macrophages": 19.14}
{"compound": "CC(C)(C)n1cc(C#N)cc1NC(=O)CCS(=O)(=O)C1CCCC1", "LiHisRS": 6.667, "Leishmania in macrophages": -26.1, "CoaBC": 1.927}
{"compound": "COc1cc(C)ccc1OCC(=O)NS(=O)(=O)c1cccnc1", "LiHisRS": 22.12, "Leishmania in macrophages": 30.82, "CoaBC": 5.374}
{"compound": "C[C@@H]1CN(c2nc(N)nc3c2CCC3)C[C@]1(C)O", "LiHisRS": 8.264, "Leishmania in macrophages": 18.74, "CoaBC": -0.216}
{"compound": "Cc1ncc(CC(=O)N2CCCC(COc3ccc(F)cc3)C2)c(=O)[nH]1", "stereo": "stereo not given", "LiHisRS": 7.018, "Leishmania in macrophages": 21.32, "CoaBC": 9.368}
{"compound": "COCCOc1ccccc1NC(C)C(=O)NC(=O)NC(C)(C)C", "stereo": "stereo not given", "LiHisRS": 11.57, "Leishmania in macrophages": 30.93, "CoaBC": 4.869}
{"compound": "O=C(Cn1cccnc1=O)NC(Cc1ccsc1)c1nccs1", "stereo": "stereo not given", "LiHisRS": 18.56, "Leishmania in macrophages": "15.53 and -0.4645", "CoaBC": -2.906}
{"compound": "Cn1cc(CN2CCC3(CCC(C(=O)NCC4CC4)C3)CC2)cn1.O=C(O)C(F)(F)F", "stereo": "stereo not given", "Leishmania in macrophages": 19.41}
{"compound": "O=C(c1cnccn1)N1CCCC(Cn2cc(C3CC3)nn2)C1", "stereo": "stereo not given", "LiHisRS": 13.33, "Leishmania in macrophages": 18.19, "CoaBC": 2.195}
{"compound": "Cc1ccccc1CNc1ccc(S(N)(=O)=O)c(C(F)(F)F)c1", "LiHisRS": 13.16, "Leishmania in macrophages": 29.37, "CoaBC": 0}
{"compound": "COC(=O)N1CCC(c2nnc(Cn3ccnc3)n2C)CC1", "LiHisRS": 13.83, "Leishmania in macrophages": 15.13, "CoaBC": 12.76}
{"compound": "O=C(NCCNc1cnccn1)N1CCN(Cc2cccnc2)CC1", "LiHisRS": 27.03, "Leishmania in macrophages": -30.88, "CoaBC": 7.05}
{"compound": "Cn1cccc1C(O)CNC(=O)COc1ccc(Cl)cc1Cl", "stereo": "stereo not given", "LiHisRS": 10.43, "Leishmania in macrophages": "29.5 and 26.91", "CoaBC": 13.74}
{"compound": "CC(C)CN1CCc2c(CN(C)Cc3ccco3)cncc2C1.Cl.Cl.Cl", "Leishmania in macrophages": 1.937}
{"compound": "O=C1COC2(CCN(C(=O)c3ccoc3)CC2)CN1Cc1cccnc1", "LiHisRS": 10.09, "Leishmania in macrophages": -3.344, "CoaBC": 3.059}
{"compound": "CS(=O)(=O)NCCc1cccc2cccnc12", "LiHisRS": 21.13, "Leishmania in macrophages": -29.25}
{"compound": "COCC(=O)N[C@H]1C[C@H]2C(=O)NC[C@@H](CCC(=O)NC3CC3)N2C1", "LiHisRS": 5.556, "CoaBC": -2.483}
{"compound": "N#Cc1csc(CN(CC(=O)N2CCCC2)CC2CCCO2)c1", "stereo": "stereo not given", "LiHisRS": 13.7, "Leishmania in macrophages": 21.28, "CoaBC": -8.182}
{"compound": "CCCn1nc(C)c(-c2cncn2CCN(C)C2CCCC2)c1C", "LiHisRS": 5.714, "CoaBC": -10.19}
{"compound": "Cc1cc(C2CCN(S(=O)(=O)c3cn(C)cn3)CC2)ccn1", "LiHisRS": 11.58, "Leishmania in macrophages": "22.75 and 19.66", "CoaBC": 3.406}
{"compound": "CN(CC(N)=O)CC(=O)N(C1=CCCCC1)C1CC1", "LiHisRS": 10.96, "Leishmania in macrophages": 22.47, "CoaBC": -4.382}
{"compound": "CC(C)Oc1cccc(F)c1C(C(=O)O)N1CCCN(C)CC1", "stereo": "stereo not given", "LiHisRS": 10, "Leishmania in macrophages": 1.638, "CoaBC": -11.32}
{"compound": "Cc1ccc(N2CCCc3sc(C(=O)NCCC#N)nc32)nn1.O=C(O)C(F)(F)F", "Leishmania in macrophages": 16.79}
{"compound": "CCc1c(C(=O)NC2CCS(=O)(=O)C2)cnn1-c1ccc(F)cc1", "stereo": "stereo not given", "LiHisRS": -1.124, "Leishmania in macrophages": 39.91, "CoaBC": 3.342}

Repeated from the top, 2 entries:

{"compound": "CCN(CC(=O)N(C)C)C(=O)c1cc(-c2cccc(Cl)c2)no1", "LiHisRS": 14.29, "Leishmania in macrophages": -27.91, "CoaBC": 8.104}
{"compound": "O=C(O)C(F)(F)F.[H][C@@]12CN(Cc3cnn(C)c3)CCC[C@]1(C(=O)O)CN(c1ncccn1)C2", "Leishmania in macrophages": 8.434}